Experimental data taken from article PMC11317144.
These are yes or no findings as the source states them, for the method shown. For some assays here: In cells and extracts the contact can be indirect. Some entries that bind do so weakly or less than the wild type. Each block holds one substance with its values, some of them ahead of it.

Protein sequences, listed by entry. Tags and fused reporters are not part of them. Lines headed by an entry give the natural chain unless they say otherwise; changes in a name come on top. Residues count along the entry.
UniProt P56524: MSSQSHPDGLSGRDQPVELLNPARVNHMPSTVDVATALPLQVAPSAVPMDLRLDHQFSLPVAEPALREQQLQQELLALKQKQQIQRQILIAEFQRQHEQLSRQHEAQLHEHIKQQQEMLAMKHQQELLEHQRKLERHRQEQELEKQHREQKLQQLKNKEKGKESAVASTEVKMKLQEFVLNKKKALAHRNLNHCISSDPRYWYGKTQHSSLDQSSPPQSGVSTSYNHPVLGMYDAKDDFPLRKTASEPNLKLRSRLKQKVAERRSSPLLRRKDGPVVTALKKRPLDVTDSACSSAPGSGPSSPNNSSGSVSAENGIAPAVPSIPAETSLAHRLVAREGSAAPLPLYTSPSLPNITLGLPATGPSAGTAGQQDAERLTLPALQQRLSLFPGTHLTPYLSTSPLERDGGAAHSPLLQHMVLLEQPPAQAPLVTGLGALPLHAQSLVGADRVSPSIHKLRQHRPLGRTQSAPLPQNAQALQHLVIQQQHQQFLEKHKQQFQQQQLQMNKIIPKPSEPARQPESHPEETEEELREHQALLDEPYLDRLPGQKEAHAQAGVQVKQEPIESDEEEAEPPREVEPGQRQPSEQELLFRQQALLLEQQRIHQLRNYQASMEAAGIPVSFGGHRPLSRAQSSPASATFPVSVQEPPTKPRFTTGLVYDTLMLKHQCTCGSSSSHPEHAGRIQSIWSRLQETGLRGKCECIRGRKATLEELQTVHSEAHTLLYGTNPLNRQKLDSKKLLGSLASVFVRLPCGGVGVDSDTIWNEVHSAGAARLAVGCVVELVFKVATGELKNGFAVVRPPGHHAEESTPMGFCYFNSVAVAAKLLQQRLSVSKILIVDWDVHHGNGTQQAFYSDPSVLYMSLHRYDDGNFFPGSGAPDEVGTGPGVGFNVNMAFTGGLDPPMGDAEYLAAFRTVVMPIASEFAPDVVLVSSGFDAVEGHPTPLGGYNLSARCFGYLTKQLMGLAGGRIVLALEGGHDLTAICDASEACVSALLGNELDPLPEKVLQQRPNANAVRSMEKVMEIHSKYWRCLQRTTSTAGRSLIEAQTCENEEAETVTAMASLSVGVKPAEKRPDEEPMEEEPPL
HDAC4-FLAG deletion mutant, amino-terminal region (aa 1-289) (human (by the printed RefSeq NM_006037)): residues 1-289 of P56524
UniProt Q14814: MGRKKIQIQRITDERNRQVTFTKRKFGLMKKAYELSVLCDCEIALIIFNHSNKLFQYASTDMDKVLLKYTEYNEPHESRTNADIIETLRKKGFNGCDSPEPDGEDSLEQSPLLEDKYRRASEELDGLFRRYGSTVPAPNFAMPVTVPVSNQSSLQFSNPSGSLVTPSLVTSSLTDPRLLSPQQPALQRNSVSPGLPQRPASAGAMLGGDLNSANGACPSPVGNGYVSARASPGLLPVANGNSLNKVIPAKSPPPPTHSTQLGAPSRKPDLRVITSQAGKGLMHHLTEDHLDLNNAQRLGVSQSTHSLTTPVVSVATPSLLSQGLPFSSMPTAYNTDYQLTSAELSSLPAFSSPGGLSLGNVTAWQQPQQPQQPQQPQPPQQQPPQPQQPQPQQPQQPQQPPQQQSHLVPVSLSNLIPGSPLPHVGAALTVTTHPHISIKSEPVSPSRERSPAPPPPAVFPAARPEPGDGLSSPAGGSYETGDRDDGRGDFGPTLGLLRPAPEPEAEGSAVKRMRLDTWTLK
GST-MEF2D (1-190): residues 1-190 of Q14814
UniProt Q92769: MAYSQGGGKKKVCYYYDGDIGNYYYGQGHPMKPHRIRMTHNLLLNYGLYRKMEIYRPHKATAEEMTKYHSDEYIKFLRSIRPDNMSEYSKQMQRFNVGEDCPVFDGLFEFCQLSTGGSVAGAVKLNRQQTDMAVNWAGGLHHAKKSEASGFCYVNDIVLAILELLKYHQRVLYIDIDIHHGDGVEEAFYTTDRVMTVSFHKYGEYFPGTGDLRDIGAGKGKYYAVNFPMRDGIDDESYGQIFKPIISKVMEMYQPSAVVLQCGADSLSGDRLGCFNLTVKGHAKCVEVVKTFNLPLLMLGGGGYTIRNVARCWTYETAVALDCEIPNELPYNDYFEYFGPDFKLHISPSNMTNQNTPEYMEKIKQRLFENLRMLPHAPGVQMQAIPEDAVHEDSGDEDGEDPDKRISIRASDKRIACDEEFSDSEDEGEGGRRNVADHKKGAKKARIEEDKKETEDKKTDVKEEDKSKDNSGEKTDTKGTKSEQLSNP
UniProt Q5VTR2: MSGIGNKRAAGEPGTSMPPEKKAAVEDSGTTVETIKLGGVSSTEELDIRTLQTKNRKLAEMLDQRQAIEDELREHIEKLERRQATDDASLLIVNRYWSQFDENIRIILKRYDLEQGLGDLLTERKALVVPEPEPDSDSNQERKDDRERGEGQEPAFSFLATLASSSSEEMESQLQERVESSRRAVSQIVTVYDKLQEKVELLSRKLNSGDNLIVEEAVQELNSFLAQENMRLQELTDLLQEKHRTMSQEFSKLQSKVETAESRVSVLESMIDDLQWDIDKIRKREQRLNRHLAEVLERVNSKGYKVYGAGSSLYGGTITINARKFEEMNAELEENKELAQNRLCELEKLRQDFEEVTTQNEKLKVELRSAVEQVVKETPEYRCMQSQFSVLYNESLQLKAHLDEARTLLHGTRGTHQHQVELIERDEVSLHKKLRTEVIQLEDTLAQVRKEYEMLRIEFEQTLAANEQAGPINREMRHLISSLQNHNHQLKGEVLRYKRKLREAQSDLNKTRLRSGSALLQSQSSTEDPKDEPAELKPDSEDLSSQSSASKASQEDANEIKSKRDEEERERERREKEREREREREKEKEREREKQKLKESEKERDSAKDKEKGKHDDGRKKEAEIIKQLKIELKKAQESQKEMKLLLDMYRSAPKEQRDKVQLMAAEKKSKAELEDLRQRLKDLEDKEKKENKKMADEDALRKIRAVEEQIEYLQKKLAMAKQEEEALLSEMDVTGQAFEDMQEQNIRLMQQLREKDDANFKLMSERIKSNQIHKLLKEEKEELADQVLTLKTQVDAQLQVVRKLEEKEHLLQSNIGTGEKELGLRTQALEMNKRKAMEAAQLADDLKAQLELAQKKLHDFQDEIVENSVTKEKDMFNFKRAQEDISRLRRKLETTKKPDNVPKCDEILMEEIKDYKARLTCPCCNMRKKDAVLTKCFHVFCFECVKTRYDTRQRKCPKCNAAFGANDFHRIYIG
UniProt O15379: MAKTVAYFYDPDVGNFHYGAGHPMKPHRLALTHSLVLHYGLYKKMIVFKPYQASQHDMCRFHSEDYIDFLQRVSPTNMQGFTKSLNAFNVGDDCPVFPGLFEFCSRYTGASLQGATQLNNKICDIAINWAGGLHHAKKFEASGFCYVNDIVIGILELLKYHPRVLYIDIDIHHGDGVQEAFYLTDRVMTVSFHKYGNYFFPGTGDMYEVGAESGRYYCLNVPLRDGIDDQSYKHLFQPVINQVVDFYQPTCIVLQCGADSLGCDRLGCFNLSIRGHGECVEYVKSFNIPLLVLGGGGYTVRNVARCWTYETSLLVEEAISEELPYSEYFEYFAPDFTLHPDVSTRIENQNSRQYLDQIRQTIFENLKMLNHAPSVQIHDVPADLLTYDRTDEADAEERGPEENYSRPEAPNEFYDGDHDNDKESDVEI

Columns and labels:
[1] = target: endogenous GFP-tagged HDAC4 (PITCh knock-in) (human (endogenous in SK-LMS-1)) (UniProt P56524); test: co-IP; native lysates of SK-LMS-1 HDAC4-GFP knock-in cells, treated or not with etoposide (60 min) or APH (4 h), immunoprecipitated with 1 μg anti-HDAC4 antibody; hypotonic lysis buffer (Figure 6G)
[2] = target: HDAC4-FLAG (full-length) (human (by the printed RefSeq NM_006037)) (UniProt P56524); test: pull-down; HDAC4-FLAG purified from 293 cells incubated with GFP, MEF2D-GFP or HDAC2-GFP purified from retrovirally transduced Ampho cells (Figure 6D); the text calls it Co-IP; both purified
[3] = target: HDAC4-FLAG deletion mutant, amino-terminal region (aa 1-289) (human (by the printed RefSeq NM_006037)) (UniProt P56524); test: co-IP; 293 cells co-transfected with HDAC2-HA and full-length or deletion mutants of HDAC4-FLAG; immunoprecipitation with 1 μg anti-FLAG antibody (Figure 6E)
[4] = target: GST-MEF2D (1-190) (UniProt Q14814); test: pull-down; 2 μg GST, GST-MEF2D (1-190) or GST-HDAC2 as baits on GST-Sepharose 4B beads; HDAC4 as prey from SK-LMS-1 lysate (hypertonic lysis buffer, 300 mM NaCl), cells treated or not for 60 min with etoposide; 4°C, 2 h (Figure 6F); only the target purified
[5] = target: GST-HDAC2 (SRP5266, Merck) (UniProt Q92769); test: as above

Substance: HDAC2-HA (from UniProt Q92769 1-488)
binding [3]: binds

Substance: MEF2D-GFP (from UniProt Q14814 1-521)
binding [2]: binds

Substance: RNF20, the E3 ligase for H2BK120ub (endogenous, SK-LMS-1) (from UniProt Q5VTR2 1-975)
binding [1]: binds

The next lines start with the values.

binding [1]: binds
Substance: HDAC2 (endogenous, SK-LMS-1) (from UniProt Q92769 1-488)

binding [2]: binds
Substance: HDAC2-GFP (from UniProt Q92769 1-488)

binding [1]: binds
Substance: HDAC3 (endogenous, SK-LMS-1) (from UniProt O15379 1-428)

binding [4]: binds | binding [5]: binds
Substance: HDAC4 (endogenous, SK-LMS-1) (from UniProt P56524-1 1-1084)
